Laboratory results from the supplement of paper PMC11006884.
Most of the targets with a hit are listed elsewhere, so they are rarer here than in the full data. The data scatter; read single values as rough. The list shows a part of the results, in another mix than the full data.

Chains of the proteins cited; added tags and fusions are not shown. Lines headed by an entry give the natural chain unless they say otherwise; changes in a name come on top.
UniProt Q6UB35, whole entry, looked up: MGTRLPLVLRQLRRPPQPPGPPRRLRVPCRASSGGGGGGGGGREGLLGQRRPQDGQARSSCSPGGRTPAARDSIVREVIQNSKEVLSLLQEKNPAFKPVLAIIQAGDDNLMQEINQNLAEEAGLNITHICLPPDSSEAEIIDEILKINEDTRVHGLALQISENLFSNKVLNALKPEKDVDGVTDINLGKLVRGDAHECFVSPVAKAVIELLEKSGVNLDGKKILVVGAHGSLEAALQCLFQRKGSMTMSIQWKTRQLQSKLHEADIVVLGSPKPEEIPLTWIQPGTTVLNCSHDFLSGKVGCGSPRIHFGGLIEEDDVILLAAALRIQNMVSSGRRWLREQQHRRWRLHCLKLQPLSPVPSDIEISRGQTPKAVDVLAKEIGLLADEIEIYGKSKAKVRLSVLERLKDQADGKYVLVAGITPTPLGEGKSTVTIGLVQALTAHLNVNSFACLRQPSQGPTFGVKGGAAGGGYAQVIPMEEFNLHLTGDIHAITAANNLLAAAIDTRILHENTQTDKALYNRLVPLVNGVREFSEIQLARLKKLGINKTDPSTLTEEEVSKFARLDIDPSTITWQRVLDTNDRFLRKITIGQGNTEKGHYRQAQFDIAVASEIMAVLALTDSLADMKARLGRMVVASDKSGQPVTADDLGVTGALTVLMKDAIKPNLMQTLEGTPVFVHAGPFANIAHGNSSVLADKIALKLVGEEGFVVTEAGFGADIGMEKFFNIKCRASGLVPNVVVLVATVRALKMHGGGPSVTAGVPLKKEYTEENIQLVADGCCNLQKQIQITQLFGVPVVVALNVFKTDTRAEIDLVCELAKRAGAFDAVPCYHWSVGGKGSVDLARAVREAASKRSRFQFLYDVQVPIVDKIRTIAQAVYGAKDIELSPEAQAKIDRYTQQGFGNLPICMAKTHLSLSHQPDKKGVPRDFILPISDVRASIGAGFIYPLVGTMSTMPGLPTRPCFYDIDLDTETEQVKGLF
UniProt Q5T5Y3: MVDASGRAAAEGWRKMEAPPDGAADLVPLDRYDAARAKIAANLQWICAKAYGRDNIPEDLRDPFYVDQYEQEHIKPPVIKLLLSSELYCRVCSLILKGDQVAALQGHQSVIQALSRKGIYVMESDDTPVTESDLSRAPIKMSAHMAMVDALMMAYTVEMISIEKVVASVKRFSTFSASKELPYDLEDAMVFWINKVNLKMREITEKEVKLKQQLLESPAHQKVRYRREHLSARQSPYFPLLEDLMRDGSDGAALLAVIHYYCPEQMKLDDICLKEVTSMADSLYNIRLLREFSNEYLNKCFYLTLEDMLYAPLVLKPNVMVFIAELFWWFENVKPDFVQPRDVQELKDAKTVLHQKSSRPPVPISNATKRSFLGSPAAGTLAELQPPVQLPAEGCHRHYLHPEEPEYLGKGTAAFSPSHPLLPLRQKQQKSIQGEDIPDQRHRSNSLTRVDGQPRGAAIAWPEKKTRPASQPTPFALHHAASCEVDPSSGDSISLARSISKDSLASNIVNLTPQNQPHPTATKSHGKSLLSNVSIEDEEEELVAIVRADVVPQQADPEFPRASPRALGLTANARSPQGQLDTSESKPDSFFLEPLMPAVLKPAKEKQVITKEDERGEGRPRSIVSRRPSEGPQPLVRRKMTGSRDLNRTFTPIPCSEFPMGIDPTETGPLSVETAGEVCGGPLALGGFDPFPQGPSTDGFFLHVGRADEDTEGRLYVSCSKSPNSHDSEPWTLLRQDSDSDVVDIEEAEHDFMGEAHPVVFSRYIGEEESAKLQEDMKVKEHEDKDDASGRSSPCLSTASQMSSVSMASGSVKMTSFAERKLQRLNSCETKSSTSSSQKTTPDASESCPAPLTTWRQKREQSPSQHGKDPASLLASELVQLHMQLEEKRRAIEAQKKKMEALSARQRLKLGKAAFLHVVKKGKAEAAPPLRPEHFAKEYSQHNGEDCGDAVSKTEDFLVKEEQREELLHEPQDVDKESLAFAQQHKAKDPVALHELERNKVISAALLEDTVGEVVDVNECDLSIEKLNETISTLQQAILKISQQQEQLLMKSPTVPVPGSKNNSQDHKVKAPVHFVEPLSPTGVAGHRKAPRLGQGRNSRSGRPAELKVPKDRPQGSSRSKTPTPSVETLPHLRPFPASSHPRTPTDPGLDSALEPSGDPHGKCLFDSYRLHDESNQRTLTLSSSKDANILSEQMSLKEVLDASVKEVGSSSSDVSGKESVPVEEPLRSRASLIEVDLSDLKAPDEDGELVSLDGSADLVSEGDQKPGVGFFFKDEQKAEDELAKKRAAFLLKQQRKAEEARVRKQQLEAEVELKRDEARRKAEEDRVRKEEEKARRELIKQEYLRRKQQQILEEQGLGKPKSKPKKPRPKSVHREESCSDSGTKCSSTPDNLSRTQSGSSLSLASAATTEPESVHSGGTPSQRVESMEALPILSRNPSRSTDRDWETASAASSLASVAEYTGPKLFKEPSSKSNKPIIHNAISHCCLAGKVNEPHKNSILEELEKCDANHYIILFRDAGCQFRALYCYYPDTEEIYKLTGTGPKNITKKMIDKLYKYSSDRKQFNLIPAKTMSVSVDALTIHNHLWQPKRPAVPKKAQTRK
UniProt Q6PJT7: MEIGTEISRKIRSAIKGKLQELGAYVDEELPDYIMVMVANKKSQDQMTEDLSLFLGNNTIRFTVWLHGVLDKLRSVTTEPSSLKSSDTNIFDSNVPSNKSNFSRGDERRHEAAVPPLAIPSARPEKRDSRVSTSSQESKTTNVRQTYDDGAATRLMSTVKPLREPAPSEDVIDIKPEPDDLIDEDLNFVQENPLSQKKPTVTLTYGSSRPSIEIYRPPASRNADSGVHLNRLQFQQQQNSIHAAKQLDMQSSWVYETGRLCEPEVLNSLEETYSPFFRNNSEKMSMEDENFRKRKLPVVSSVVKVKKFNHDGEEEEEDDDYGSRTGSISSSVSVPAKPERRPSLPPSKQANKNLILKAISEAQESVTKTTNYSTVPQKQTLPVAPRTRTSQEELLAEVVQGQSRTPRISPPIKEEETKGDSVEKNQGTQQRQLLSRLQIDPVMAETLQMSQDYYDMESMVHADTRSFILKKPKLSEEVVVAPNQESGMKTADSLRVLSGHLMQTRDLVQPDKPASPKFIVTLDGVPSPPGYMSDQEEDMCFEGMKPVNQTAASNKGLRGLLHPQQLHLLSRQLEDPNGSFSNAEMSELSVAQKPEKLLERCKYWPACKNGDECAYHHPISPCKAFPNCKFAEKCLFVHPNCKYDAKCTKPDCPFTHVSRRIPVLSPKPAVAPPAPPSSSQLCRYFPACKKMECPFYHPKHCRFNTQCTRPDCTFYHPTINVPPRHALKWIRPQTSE
UniProt Q6GMV3: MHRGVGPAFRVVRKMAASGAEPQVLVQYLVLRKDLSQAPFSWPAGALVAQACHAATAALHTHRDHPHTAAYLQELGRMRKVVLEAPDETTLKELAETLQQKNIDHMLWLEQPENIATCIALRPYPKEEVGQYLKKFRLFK
UniProt Q5T160: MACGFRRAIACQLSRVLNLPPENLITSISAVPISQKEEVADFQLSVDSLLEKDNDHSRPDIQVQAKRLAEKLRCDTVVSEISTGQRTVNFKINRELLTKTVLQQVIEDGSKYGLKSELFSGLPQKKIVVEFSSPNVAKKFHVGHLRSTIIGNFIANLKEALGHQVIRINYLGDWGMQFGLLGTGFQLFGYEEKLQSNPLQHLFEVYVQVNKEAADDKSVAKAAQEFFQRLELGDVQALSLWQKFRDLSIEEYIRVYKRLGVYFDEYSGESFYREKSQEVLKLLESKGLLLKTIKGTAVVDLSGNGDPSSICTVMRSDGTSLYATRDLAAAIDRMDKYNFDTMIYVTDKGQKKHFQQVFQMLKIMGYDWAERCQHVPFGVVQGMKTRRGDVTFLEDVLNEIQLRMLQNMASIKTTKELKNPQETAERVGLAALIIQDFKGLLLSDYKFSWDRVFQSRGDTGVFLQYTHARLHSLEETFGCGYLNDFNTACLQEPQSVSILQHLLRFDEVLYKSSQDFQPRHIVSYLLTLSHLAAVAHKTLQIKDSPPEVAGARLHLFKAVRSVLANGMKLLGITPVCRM
UniProt Q5TFE4: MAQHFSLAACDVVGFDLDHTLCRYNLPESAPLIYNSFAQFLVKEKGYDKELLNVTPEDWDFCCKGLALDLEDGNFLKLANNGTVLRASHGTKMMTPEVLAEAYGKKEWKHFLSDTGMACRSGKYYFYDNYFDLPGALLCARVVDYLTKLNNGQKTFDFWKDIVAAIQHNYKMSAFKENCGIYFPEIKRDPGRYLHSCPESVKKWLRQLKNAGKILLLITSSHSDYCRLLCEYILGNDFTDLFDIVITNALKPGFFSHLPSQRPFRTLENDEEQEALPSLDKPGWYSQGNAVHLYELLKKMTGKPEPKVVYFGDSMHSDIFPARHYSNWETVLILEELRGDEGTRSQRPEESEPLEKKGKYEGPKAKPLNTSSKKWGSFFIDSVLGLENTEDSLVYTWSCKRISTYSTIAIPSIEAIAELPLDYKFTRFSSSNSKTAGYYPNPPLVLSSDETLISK
UniProt Q5SW79: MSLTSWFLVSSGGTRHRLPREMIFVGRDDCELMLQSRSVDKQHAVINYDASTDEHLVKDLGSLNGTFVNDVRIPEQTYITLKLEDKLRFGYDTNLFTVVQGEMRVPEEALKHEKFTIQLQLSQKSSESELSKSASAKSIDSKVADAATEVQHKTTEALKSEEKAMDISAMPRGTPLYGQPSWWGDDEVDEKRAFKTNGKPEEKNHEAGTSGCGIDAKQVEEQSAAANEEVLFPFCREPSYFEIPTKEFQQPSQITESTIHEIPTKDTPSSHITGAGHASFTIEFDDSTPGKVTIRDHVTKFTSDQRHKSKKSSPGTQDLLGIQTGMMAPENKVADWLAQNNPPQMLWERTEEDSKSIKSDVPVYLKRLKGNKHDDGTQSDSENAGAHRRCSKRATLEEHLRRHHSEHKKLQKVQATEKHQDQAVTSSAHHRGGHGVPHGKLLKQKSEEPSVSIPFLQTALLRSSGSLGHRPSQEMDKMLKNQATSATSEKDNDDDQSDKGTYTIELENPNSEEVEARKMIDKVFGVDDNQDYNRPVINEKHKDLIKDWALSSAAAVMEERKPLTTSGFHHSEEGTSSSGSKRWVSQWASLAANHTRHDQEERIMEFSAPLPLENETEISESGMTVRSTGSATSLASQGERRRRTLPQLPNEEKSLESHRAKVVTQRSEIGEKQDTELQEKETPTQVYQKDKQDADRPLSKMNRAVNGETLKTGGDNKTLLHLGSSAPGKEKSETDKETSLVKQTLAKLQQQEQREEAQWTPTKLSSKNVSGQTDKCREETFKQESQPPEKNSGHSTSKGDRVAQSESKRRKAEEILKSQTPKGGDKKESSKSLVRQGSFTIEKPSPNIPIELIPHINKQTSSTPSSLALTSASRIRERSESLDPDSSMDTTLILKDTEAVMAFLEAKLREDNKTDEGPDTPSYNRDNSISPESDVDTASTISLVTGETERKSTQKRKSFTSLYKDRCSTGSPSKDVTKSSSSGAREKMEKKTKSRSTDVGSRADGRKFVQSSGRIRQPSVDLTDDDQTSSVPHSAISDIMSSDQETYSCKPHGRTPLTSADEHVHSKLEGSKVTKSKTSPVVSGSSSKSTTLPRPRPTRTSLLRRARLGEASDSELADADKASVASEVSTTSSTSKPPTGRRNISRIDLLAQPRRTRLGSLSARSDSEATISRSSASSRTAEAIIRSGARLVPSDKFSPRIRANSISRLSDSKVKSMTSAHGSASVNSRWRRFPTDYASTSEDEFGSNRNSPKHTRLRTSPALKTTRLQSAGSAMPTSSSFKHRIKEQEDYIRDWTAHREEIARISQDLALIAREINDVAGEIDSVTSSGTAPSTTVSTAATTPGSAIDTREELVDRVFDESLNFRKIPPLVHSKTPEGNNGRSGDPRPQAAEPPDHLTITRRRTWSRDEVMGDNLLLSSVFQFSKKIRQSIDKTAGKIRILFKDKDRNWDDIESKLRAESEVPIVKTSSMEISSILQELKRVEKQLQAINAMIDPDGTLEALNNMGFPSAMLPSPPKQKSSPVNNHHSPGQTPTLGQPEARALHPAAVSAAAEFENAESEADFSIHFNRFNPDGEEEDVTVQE
UniProt Q5TDH0: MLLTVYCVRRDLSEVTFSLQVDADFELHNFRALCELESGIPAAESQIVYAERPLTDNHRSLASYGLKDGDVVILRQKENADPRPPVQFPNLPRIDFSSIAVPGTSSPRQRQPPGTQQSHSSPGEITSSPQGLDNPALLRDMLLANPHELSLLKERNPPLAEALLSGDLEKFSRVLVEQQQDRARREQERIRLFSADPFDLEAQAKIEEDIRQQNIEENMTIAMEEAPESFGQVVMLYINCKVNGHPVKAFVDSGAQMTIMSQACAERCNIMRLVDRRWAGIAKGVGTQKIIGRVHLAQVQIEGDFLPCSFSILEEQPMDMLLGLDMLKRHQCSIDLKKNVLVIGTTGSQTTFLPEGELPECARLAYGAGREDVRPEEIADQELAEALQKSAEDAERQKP

Each target was assayed with COC(=O)/C=C/c1ccccc1 [methyl cinnamate] (assay: log2 ratio of iodoacetamide-alkyne labeling of the cysteine site, DMSO over compound (competition); higher = stronger covalent engagement of the cysteine by the compound, active = 1 or more). Conditions: 500 µM; treatment time 1 h; system: HEK293T cell lysate.
Outline: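 HEK293T lysate at 2 mg/mL was treated with vehicle or electrophile (500 µM) for 1 h at ambient temperature, then labelled with iodoacetamide alkyne (1 h), clicked to sCIP-TMT reagents, pooled, digested with trypsin overnight at 37 °C, enriched on streptavidin and eluted with acid. Peptides were analysed by Orbitrap Eclipse LC-MS/MS with FAIMS and quantified in FragPipe, using duplicate channels and three replicates, with cysteines quantified in only one replicate excluded. The log2 competition ratio for each cysteine is the mean control-channel reporter intensity divided by the mean compound-channel reporter intensity.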

log2 ratio of iodoacetamide-alkyne labeling, inactive:
DENND4C C1105 (UniProt Q5VZ89) 0.128, FAM117B C244 (UniProt Q6P1L5) 0.28, UniProt Q5THK1_C92 0.578, DARS2 C590 (UniProt Q6PI48) 0.0339, PITRM1 C556 (UniProt Q5JRX3) 0.264, ANKRD54 C23 (UniProt Q6NXT1) 0.306, RSBN1L C10 (UniProt Q6PCB5) 0.13, UniProt Q5T440_C170 0.333, CEP78 C653 (UniProt Q5JTW2) 0.254, NIPBL C1795 (UniProt Q6KC79) -0.291, MTHFD1L C906 (UniProt Q6UB35) -0.0412, GIGYF2 C938 (UniProt Q6Y7W6) 0.405, FAHD2B C301 (UniProt Q6P2I3) -0.129, NHSL1 C729 (UniProt Q5SYE7) 0.404, CAMSAP1 C848 (UniProt Q5T5Y3) 0.198, LIN28B C201 (UniProt Q6ZN17) 0.283, PRPF8 C435 (UniProt Q6P2Q9) 0.187, TAPT1 C562 (UniProt Q6NXT6) 0.133, LARP1 C502 (UniProt Q6PKG0) 0.00405, MTHFD1L C302 (UniProt Q6UB35) 0.21, GIGYF2 C573 (UniProt Q6Y7W6) 0.292, ZMYM4 C1264 (UniProt Q5VZL5) 0.302, ZC3H14 C622 (UniProt Q6PJT7) -0.185, UniProt Q6GMV3_C118 -0.249, BCOR C1044 (UniProt Q6W2J9) 0.247, TRIM65 C500 (UniProt Q6PJ69) 0.0817, TMEM214 C392 (UniProt Q6NUQ4) 0.0654, RARS2 C74 (UniProt Q5T160) 0.257, NT5DC1 C179 (UniProt Q5TFE4) 0.161, UniProt Q6NSI4_C60 0.138, CEP170 C212 (UniProt Q5SW79) 0.498, ZNF318 C2025 (UniProt Q5VUA4) -0.117, DDI2 C361 (UniProt Q5TDH0) 0.107, CC2D1A C252 (UniProt Q6P1N0) 0.0676, HEATR6 C360 (UniProt Q6AI08) 0.229, CTR9 C511 (UniProt Q6PD62) 0.0056, PRPF8 C2144 (UniProt Q6P2Q9) 0.282, ATPAF1 C321 (UniProt Q5TC12) 0.39
